Laboratory results: publication PMC11856857, “Protease-Resistant, Broad-Spectrum Antimicrobial Peptides with High Antibacterial and Antifungal Activity” (Life, 2025)
Where a SMILES comes first, the peptide text is derived from it. Where no end group is shown, it is not given here.

Legend:
HaCaT cell line = format: cell-based, human; details: IC50/MIC value of the related organism
Experimental: (§1) 3T3 and HaCaT cells were grown in DMEM consisting of 1% pen/strep and 10% FBS. A total of 5 × 10^4 cells were loaded into each well of a 96-well plate and incubated at 37 °C using a 5% CO2 incubator. All samples were measured in triplicate between 0.5–32 µg/mL concentrations and incubated at 37 °C for 24 h in a 5% CO2 incubator. Only cells and Mag-2 were used as negative and positive controls, respectively. After 24 h, cell cytotoxicity was evaluated using a cell proliferation kit (MTT, Roche, Basel, Switzerland) following the kit protocol and analyzed at 550 nm and 690 nm using a microplate reader (Gen5 Synergy HT BioTek). The concentration of peptides that killed 50% of the cells was determined as the IC50 in the cytotoxicity experiments.

3t3 cell line = format: cell-based, mouse; details: IC50/MIC value of the related organism
Experimental: as §1

| Compound | HaCaT Selectivity Index C. albicans (HaCaT cell line) | HaCaT Selectivity Index E. coli (HaCaT cell line) | HaCaT Selectivity Index P. aeruginosa (HaCaT cell line) | HaCaT Selectivity Index S. aureus (HaCaT cell line) | 3t3 Selectivity Index C. albicans (3t3 cell line) | 3t3 Selectivity Index E. coli (3t3 cell line) | 3t3 Selectivity Index P. aeruginosa (3t3 cell line) | 3t3 Selectivity Index S. aureus (3t3 cell line) |
| --- | --- | --- | --- | --- | --- | --- | --- | --- |
| CC(C)C[C@@H](NC(=O)[C@H](N)CCCNC(=N)N)C(=O)N[C@H](CC(C)C)C(=O)N[C@H](CCCNC(=N)N)C(=O)N[C@H](CC(C)C)C(=O)N[C@H](CC(C)C)C(=O)N[C@H](CC(C)C)C(=O)N[C@H](CCCNC(=N)N)C(=O)N[C@H](CC(C)C)C(=O)N[C@H](CC(C)C)C(=O)N[C@H](CCCNC(=N)N)C(N)=O [D-TN6] (HELM PEPTIDE1{[dR].[dL].[dL].[dR].[dL].[dL].[dL].[dR].[dL].[dL].[dR].[am]}$$$$V2.0) | 39.28 | 19.64 | 9.82 | 19.64 | 35.16 | 17.58 | 8.79 | 17.58 |
| RLLRLLLRLLR-NH2 [TN6] | 30.64 | 7.66 | 1.91 | 7.66 | 59.60 | 14.90 | 3.72 | 14.90 |
